# Values quoted from earlier work, collected in patent US20230172920A1, “DOSING REGIMEN FOR TREATING A DISEASE MODULATED BY CSF-1R” (Novartis AG, priority 2020, published 2023).
# Chains of the proteins cited; added tags and fusions are not shown.
# UniProt P08183, whole entry: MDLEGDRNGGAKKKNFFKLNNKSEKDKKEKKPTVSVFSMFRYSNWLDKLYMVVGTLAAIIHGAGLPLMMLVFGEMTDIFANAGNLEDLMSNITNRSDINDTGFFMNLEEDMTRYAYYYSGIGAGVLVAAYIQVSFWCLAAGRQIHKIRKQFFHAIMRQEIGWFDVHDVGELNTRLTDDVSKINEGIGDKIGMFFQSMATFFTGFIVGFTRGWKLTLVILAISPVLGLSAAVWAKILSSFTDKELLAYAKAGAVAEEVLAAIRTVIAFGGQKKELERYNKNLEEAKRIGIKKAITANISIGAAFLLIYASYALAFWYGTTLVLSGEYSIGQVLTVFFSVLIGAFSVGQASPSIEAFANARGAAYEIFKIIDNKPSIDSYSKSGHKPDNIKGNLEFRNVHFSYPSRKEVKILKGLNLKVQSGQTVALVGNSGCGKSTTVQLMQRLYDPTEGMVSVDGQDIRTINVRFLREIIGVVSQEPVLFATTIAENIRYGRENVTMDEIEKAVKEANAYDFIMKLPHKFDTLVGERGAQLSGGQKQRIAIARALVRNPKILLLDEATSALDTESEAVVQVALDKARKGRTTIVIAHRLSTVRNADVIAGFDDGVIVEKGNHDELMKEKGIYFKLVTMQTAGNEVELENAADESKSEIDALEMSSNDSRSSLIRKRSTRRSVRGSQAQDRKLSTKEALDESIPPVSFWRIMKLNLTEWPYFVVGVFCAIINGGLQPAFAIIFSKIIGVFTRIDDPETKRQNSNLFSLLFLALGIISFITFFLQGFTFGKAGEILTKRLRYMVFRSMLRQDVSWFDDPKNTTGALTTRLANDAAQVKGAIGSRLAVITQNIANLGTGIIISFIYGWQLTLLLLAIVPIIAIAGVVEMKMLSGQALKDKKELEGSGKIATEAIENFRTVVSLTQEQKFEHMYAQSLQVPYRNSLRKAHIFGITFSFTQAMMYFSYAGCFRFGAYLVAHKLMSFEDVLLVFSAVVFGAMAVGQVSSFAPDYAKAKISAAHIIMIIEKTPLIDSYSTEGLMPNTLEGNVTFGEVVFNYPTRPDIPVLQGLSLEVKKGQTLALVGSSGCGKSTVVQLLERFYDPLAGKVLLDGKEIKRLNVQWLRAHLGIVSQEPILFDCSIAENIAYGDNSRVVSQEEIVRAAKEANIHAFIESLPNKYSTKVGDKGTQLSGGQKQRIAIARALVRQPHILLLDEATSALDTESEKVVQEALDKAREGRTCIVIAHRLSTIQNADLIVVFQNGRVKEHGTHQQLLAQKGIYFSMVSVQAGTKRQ
# UniProt Q9UNQ0, whole entry, species assumed: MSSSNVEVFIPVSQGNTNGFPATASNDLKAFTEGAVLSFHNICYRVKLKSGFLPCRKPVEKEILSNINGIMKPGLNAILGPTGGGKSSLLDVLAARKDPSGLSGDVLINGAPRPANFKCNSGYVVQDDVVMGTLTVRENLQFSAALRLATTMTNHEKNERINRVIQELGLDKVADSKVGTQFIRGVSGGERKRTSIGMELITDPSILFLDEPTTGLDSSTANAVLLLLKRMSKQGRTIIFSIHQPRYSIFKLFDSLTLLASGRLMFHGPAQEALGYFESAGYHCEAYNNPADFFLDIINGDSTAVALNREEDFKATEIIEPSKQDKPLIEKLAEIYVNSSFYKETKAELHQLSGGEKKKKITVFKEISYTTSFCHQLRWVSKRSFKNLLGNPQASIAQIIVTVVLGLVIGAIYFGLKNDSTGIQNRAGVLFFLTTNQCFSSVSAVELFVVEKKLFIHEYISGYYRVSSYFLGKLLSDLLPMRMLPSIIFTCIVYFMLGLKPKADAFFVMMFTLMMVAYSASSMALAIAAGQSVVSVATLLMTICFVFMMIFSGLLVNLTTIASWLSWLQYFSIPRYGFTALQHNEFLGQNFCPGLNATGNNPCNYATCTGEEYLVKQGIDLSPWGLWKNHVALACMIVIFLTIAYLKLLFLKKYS
# Columns and labels:
# P-glycoprotein (P-gp) = P-glycoprotein (P-gp) (Homo sapiens, UniProt P08183); conditions: Milane et al 2009; cited from earlier work
# [1] = target: breast cancer resistance protein (BCRP) (Homo sapiens, UniProt Q9UNQ0); conditions: Milane et al 2009; cited from earlier work
smiles,measurement,setting,value
Nc1nc2ccc(OC(F)(F)F)cc2s1 [riluzole],transporter substrate,P-glycoprotein (P-gp),substrate
same,transporter substrate,[1],substrate
